Data: PMC10937811
No constants are given. Whether binding was seen depends on the method and setting. Binding seen in cells or lysates may run through a third protein. A yes stands for co-enrichment or nearness to the bait. Other partners may have been found.

B1: myosin regulatory light chain (Q3THE2) (protein, UniProt Q3THE2 1-172)
chain: MSSKKAKTKTTKKRPQRATSNVFAMFDQSQIQEFKEAFNMIDQNRDGFIDKEDLHDMLASLGKNPTDAYLDAMMNEAPGPINFTMFLTMFGEKLNGTDPEDVIRNAFACFDEEATGTIQEDYLRELLTTMGDRFTDEEVDELYREAPIDKKGNFNYIEFTRILKHGAKDKDD
B2: myosin essential light chain (A0A1W2P6F6) (protein, UniProt Q60605 1-151)
chain: MCDFTEDQTAEFKEAFQLFDRTGDGKILYSQCGDVMRALGQNPTNAEVLKVLGNPKSDEMNVKVLDFEHFLPMLQTVAKNKDQGTYEDYVEGLRVFDKEGNGTVMGAEIRHVLVTLGEKMTEEEVEMLVAGHEDSNGCINYEAFVRHILSG

Biological target: mouse APOL6 (Apolipoprotein L6) (mouse (endogenous in ATMSCs of C57BL/6 mice))
Experiment: affinity purification with mass spectrometry; immunoprecipitates of ATMSCs from C57BL/6 WT or mAPOL6 KO mice, rabbit antibodies raised against the mAPOL6 D36-K52 peptide; mass spectrometry

| Binder | binding |
| --- | --- |
| B1 | binds |
| B2 | binds |
